# Results as given in the supplement of paper PMC10849652.
# Chains of the proteins cited; added tags and fusions are not shown. Lines headed by an entry give the natural chain unless they say otherwise; changes in a name come on top.
# UniProt Q16378: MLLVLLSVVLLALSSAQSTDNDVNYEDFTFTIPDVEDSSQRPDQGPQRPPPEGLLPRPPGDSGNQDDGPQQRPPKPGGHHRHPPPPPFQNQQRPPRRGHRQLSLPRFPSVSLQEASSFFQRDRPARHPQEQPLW
# UniProt P48556: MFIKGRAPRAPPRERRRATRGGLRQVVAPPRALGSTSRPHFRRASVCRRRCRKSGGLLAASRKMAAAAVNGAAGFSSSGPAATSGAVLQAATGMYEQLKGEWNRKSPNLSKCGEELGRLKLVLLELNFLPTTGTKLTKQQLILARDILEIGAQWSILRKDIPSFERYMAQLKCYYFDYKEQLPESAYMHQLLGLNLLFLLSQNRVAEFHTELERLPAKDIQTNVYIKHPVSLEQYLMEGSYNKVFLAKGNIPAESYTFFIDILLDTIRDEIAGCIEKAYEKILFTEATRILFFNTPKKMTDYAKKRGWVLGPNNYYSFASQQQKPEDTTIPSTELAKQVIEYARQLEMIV
# UniProt P20618: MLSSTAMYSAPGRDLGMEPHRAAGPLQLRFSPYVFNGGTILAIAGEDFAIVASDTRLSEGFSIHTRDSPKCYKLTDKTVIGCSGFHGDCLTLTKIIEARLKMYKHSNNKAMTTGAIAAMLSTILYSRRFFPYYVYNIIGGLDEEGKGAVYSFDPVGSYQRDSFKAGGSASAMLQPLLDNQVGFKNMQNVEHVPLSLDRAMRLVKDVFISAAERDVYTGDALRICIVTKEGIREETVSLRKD
# UniProt Q8WV60: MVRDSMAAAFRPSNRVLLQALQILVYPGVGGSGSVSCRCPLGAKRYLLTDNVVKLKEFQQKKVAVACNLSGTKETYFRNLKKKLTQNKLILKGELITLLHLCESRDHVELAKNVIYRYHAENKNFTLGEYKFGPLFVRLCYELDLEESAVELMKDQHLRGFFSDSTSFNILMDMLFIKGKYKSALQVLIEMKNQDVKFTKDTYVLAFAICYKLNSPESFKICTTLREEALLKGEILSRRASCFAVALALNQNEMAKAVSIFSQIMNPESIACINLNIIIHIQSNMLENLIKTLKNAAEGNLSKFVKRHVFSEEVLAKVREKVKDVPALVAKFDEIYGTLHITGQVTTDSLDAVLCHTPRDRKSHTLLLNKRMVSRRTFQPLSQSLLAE
# UniProt Q14671: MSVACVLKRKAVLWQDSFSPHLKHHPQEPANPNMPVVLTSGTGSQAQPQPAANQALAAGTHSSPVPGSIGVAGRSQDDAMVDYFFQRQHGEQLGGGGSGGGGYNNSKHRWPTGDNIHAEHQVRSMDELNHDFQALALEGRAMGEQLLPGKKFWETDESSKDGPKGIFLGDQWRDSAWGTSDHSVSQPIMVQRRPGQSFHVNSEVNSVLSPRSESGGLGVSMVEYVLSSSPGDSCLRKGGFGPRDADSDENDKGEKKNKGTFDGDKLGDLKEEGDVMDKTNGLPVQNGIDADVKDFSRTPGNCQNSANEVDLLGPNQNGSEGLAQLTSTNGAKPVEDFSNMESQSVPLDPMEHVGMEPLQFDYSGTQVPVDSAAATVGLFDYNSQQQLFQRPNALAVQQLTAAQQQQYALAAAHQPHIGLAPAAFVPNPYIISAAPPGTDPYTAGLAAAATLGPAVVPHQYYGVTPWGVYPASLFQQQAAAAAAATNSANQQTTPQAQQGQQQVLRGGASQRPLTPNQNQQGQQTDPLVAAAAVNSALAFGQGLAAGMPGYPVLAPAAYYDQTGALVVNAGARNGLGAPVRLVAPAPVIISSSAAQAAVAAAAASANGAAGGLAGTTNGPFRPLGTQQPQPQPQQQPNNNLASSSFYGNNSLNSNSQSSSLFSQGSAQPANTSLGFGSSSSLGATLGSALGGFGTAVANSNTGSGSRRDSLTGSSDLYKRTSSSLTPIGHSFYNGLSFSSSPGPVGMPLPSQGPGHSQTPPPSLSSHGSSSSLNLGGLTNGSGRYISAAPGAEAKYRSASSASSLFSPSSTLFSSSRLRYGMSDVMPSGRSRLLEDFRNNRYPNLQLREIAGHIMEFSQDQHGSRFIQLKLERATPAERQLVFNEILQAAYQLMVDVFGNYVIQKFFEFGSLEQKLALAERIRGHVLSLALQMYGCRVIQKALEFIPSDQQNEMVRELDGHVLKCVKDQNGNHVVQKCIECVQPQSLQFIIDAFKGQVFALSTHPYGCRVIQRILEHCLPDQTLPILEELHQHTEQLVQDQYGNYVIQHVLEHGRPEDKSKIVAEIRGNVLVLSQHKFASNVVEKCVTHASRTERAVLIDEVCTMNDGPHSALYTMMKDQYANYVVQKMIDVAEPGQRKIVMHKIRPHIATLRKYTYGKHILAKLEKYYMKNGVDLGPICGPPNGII
# UniProt Q8WUY3: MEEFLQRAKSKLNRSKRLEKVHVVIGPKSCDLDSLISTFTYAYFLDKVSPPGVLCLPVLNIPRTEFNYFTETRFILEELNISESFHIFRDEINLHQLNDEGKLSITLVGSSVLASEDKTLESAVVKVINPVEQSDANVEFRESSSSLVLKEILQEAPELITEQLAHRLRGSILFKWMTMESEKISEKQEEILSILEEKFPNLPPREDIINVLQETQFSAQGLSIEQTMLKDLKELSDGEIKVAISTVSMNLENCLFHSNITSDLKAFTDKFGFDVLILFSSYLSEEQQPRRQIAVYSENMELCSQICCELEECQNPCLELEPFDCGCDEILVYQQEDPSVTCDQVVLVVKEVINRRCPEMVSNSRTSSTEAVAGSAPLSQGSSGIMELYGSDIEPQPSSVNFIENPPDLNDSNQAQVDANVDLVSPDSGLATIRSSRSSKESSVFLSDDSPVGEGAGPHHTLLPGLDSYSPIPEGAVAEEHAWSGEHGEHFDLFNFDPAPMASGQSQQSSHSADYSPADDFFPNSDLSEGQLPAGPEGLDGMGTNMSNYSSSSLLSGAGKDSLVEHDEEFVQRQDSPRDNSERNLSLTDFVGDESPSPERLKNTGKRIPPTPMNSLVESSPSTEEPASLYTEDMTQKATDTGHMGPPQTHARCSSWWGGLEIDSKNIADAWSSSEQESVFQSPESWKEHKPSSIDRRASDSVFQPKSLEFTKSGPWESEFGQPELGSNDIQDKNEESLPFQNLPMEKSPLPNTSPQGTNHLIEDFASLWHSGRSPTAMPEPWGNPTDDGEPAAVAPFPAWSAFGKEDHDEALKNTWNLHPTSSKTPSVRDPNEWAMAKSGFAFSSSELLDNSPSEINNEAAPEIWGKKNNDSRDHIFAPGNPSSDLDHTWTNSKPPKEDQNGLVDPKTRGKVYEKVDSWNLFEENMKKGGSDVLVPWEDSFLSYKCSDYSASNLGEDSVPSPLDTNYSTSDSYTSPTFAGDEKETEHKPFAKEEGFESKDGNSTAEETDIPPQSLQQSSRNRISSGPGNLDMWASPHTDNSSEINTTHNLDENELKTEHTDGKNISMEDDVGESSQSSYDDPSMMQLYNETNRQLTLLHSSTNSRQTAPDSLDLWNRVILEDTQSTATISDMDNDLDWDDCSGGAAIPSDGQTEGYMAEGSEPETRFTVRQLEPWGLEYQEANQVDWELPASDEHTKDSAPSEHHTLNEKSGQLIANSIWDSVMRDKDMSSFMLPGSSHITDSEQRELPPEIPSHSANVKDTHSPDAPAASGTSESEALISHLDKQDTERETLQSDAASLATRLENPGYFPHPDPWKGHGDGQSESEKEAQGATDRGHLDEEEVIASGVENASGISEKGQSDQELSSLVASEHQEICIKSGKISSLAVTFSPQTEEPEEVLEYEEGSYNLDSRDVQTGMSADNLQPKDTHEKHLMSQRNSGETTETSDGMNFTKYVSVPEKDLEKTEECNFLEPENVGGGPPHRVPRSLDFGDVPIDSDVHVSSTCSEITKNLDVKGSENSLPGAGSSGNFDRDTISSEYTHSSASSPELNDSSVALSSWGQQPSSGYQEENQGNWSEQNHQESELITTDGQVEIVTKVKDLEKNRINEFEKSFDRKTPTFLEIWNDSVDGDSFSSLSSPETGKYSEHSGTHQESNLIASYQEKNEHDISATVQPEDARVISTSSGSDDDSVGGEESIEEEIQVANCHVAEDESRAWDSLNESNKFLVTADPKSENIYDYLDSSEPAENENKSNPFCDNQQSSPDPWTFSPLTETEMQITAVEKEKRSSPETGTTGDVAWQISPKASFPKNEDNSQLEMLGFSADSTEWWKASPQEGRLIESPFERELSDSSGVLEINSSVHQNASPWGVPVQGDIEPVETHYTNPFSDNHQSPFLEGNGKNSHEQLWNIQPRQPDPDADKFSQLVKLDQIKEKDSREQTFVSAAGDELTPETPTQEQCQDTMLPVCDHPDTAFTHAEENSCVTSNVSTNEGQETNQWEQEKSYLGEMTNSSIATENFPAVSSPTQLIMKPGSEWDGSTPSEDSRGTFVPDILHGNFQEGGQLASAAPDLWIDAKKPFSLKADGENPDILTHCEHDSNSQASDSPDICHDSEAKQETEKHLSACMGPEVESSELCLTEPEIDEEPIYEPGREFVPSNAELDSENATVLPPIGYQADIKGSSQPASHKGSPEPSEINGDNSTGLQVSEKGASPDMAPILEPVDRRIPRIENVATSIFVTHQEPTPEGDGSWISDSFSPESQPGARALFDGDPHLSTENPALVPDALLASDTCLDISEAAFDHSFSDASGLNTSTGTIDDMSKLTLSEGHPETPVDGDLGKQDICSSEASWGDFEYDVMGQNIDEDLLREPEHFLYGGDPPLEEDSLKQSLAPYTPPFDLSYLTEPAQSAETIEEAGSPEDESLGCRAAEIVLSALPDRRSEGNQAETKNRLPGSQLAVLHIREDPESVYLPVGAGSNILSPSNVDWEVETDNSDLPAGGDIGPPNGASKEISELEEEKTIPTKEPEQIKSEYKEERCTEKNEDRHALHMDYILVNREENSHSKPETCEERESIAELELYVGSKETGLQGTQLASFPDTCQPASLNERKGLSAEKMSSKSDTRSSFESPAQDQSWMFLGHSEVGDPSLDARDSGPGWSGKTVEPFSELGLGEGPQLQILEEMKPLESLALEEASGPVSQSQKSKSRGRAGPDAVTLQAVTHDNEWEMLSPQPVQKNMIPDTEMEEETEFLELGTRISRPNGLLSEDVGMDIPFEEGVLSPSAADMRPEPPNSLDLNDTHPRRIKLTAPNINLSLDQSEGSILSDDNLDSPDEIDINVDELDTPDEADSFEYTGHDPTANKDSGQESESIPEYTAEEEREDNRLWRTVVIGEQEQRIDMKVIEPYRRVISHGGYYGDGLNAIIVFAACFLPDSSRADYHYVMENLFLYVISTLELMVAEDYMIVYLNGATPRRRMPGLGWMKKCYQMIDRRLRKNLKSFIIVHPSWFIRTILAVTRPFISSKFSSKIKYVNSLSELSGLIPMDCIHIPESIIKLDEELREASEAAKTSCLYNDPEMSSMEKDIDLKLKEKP
# The other results are listed elsewhere or left out.
# Columns and labels:
# Test in all cases: log2 fold change, soluble protein after heating vs DMSO (PISA); higher = thermal stabilisation; K562 lysate, 10 uM; active = over 0.2 and 3.5 SD of the protein, either way, in both replicates (recomputed)
# [1] = compound: C#Cc1cccc(Nc2ncnc3cc(OCCOC)c(OCCOC)cc23)c1 [erlotinib]
# How it was run: (§1)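 A 30 min treatment with 10 μM compound was applied to crude K562 extract at 1 mg/mL protein in PBS pH 7.4 with 1 mM MgCl2. Heating for 3 min spanned 48°C-58°C, after which aliquots were pooled, adjusted to 0.5% NP-40 at 4°C and spun at 21,000xg for 90 min. TMTpro 16plex LC-MS/MS of the supernatant, with channel sums equalised, gave values recorded as log-two fold change in thermal stability against solvent controls, from duplicates.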
# [2] = compound: C/C(=N\NC(=O)C1=CC(=CC=C1)S(=O)(=O)N2CCOCC2)/C3=C(C=CC(=C3)Cl)O
# How it was run: as §1
# [3] = compound: C1=CC(=CC=C1C2=NC3=C(N2)C=C(C=C3)C(=O)N)OC4=CC=C(C=C4)Cl
# How it was run: as §1
# [4] = compound: C1=CC2=C(C=CC(=C2)/C=C\3/C(=O)NC(=NCC4=CC=CS4)S3)N=C1
# How it was run: as §1
# [5] = compound: C1=CC=C(C=C1)C2=NC(=C(N2)C3=CC=NC=C3)C4=CC(=C(C=C4)Cl)O
# How it was run: as §1
# [6] = compound: C1=CC=C2C(=C1)C3=NNC4=CC=CC(=C43)C2=O
# How it was run: as §1
# [7] = compound: C1CCN(C1)C(=O)NC2=CC=CC(=C2)NC3=NC=C(C(=N3)NCCC4=CN=CN4)Br
# How it was run: as §1
# [8] = compound: C1CN(CCC1(CC2=CC=C(C=C2)Cl)N)C3=NC=NC4=C3C=CN4
# How it was run: as §1
# [9] = compound: C1COCCN1CCN2C3=CC=CC=C3N=C2NC(=O)C4=CC(=CC=C4)[N+](=O)[O-] [IRAK-1-4 Inhibitor I]
# How it was run: as §1
# [10] = compound: CC(=O)c1cnc2ccc(-c3cc(Cl)c(O)c(Cl)c3)nc2c1N[C@H]1CC[C@H](CN(C)C)CC1
# How it was run: as §1
# [11] = compound: CC(C)(C)Cn1c(N)nc2ccc(-c3[nH]c(C(C)(C)C)nc3-c3ccc(F)cc3)nc21 [ralimetinib]
# How it was run: as §1
# [12] = compound: CC(C)(O)CC(=O)NCCn1ccc2ncnc(Nc3ccc(Oc4cccc(C(F)(F)F)c4)c(Cl)c3)c21
# How it was run: as §1
# [13] = compound: CC(C)C1=C2N=C(C=C(N2N=C1)NCC3=CC=CC=C3)NCCCCCCN
# How it was run: as §1
# [14] = compound: CC1=C(C(CC(=O)N1)C2=CC=C(C=C2)C(F)(F)F)C(=O)NC3=C(C=C4C(=C3)C=NN4)F
# How it was run: as §1
# [15] = compound: CC1=C(C=C(C=C1)NC(=O)C2=CC(=CC=C2)N(C)C)NC(=O)C3=CC=C(C=C3)O
# How it was run: as §1
# [16] = compound: CC1=CC=C(C=C1)SC2=C3C=C(SC3=CN=C2)C(=O)N
# How it was run: as §1
# [17] = compound: C1=CC2=NC=CN=C2C=C1/C=C/3\C(=O)NC(=O)S3
# How it was run: as §1
# [18] = compound: C=CC(=O)N1CCC[C@@H](n2nc(-c3ccc(Oc4ccccc4)cc3)c3c(N)ncnc32)C1 [ibrutinib]
# How it was run: as §1
# [19] = compound: CC1=C(C2=C(C=C1)C(=O)C3=CC=CC=C3N2CCCN)C
# How it was run: as §1
# [20] = compound: CC1=C(C=C(C=C1)NC(=O)C2=CC(=CC=C2)C(C)(C)C#N)NC3=CC4=C(C=C3)N=CN(C4=O)C
# How it was run: as §1
Target,log2 fold change [1],log2 fold change [2],log2 fold change [3],log2 fold change [4],log2 fold change [5],log2 fold change [6],log2 fold change [7],log2 fold change [8],log2 fold change [9],log2 fold change [10],log2 fold change [11],log2 fold change [12],log2 fold change [13],log2 fold change [14],log2 fold change [15],log2 fold change [16],log2 fold change [17],log2 fold change [18],log2 fold change [19],log2 fold change [20]
PRR4 (UniProt Q16378),inactive: -0.097,inactive: 1.59,inactive: -0.193,inactive: -0.167,inactive: -0.11,inactive: -0.484,inactive: -0.127,inactive: 1.09,inactive: -0.048,inactive: -0.009,inactive: -0.188,inactive: 0.305,inactive: 1.86,inactive: 1.73,inactive: 0.1,inactive: -0.23,–,–,–,–
PSMD8 (UniProt P48556),inactive: -0.022,inactive: -0.019,inactive: -0.033,inactive: 0.074,inactive: -0.002,inactive: -0.016,inactive: 0,inactive: 0.032,inactive: 0.028,inactive: 0.031,inactive: 0.019,inactive: -0.019,inactive: -0.028,inactive: 0.005,inactive: 0.029,inactive: 0.025,inactive: -0.019,inactive: 0.009,inactive: -0.027,inactive: 0.014
PSMB1 (UniProt P20618),inactive: 0,inactive: -0.065,inactive: 0.053,inactive: 0.016,inactive: -0.013,inactive: -0.01,inactive: 0.003,inactive: 0,inactive: 0.008,inactive: -0.003,inactive: 0.004,inactive: -0.035,inactive: -0.01,inactive: 0.017,inactive: 0.008,inactive: -0.034,inactive: -0.033,inactive: -0.004,inactive: -0.019,inactive: 0.008
PTCD2 (UniProt Q8WV60),inactive: 0.149,inactive: -0.316,inactive: -0.055,inactive: 0.184,inactive: -0.065,inactive: -0.032,inactive: 0.124,inactive: 0.044,inactive: 0.052,inactive: 0.136,inactive: 0.085,inactive: -0.108,inactive: 0.028,inactive: 0.18,inactive: 0.045,inactive: -0.173,–,–,inactive: -0.058,inactive: 0
PUM1 isoform 3 (UniProt Q14671),inactive: -0.025,inactive: 0.051,inactive: 0.06,inactive: -0.028,inactive: -0.052,inactive: -0.033,inactive: 0.01,inactive: 0.013,inactive: 0.011,inactive: 0.009,inactive: 0.003,inactive: -0.031,inactive: -0.035,inactive: 0.032,inactive: 0.049,inactive: 0.014,inactive: 0.02,inactive: -0.034,inactive: 0.044,active: -0.435
PRUNE2 isoform 3 (UniProt Q8WUY3),inactive: 0.037,inactive: -0.155,inactive: 0.105,inactive: 0.026,inactive: 0,inactive: -0.08,–,–,inactive: 0.003,inactive: -0.093,inactive: 0.018,inactive: -0.093,inactive: -0.005,inactive: 0.019,inactive: 0.028,inactive: -0.05,inactive: 0.059,inactive: -0.015,inactive: -0.052,inactive: -0.033
